Source: paper PMC12378234, “Enzyme-mediated aminoglycoside resistance without target mimicry” (Communications Chemistry, 2025)
Values joined by “and” are separate entries in the source; they are usually repeats but may differ in a detail not shown here. Equal entries are not always repeated. Where two headings read alike, the source gives them in different places. This continues a long series; more values of the same kind are listed elsewhere.

Tested on: BL21(DE3) E. coli transformed with pUCP18 vector expressing untagged AAC(3)-IIIa
Type: cell-based
Protocol: Ten milliliters of LB containing […] ampicillin were inoculated from glycerol stocks of transformed BL21(DE3) E. coli containing genes expressing the proteins of interest in pUCP18 vectors. These cultures were incubated at 37 °C with 200 rpm agitation for 16 h. Turbidity was measured through OD600 with a NanoDrop OneC Spectrometer (Thermo Scientific). From the initial cultures, secondary 10 mL cultures were prepared with OD600 values of 0.1. These cultures were grown until OD600 values of 0.4–0.6 were reached and diluted to bring all cultures to the same OD600. Cultures were induced with 1 mM Isopropyl β-D-1-thiogalactopyranoside and incubated for 4 h. Two microliters of culture was added to 198 μL of LB with an appropriate aminoglycoside titration concentration. Each titration point was repeated n = 4 times. The formulated 96-well culture plate (Sarstedt) had OD600 measured on a 20-min interval over 17 h using a BioTek Cytation 5 Cell Imaging Multimode Reader, incubating at 37 °C with 282 cpm orbital agitation. Experiments were repeated with fresh cultures on separate days to ensure consistent trends. Data was analyzed in Microsoft Excel and GraphPad5. The remainder of the culture immediately had its RNA isolated for qPCR experiments.

Compound: CN[C@@H]1[C@@H](O)[C@@H](O[C@@H]2[C@@H](O)[C@H](O[C@H]3OC(CN)=CC[C@H]3N)[C@@H](N)C[C@H]2N)OC[C@]1(C)O [Sisomicin, sisomicin]
- OD600 growth curve (6 ug/mL Sisomicin, time point 08:59:10): 0.305 and 0.327 and 0.299 and 0.242
- OD600 growth curve (6 ug/mL Sisomicin, time point 09:19:10): 0.313 and 0.337 and 0.307 and 0.261
- OD600 growth curve (6 ug/mL Sisomicin, time point 09:39:10): 0.317 and 0.343 and 0.313 and 0.278
- OD600 growth curve (6 ug/mL Sisomicin, time point 09:59:10): 0.323 and 0.349 and 0.322 and 0.299
- OD600 growth curve (6 ug/mL Sisomicin, time point 10:19:10): 0.329 and 0.356 and 0.328 and 0.314
- OD600 growth curve (6 ug/mL Sisomicin, time point 10:39:10): 0.333 and 0.359 and 0.325
- OD600 growth curve (6 ug/mL Sisomicin, time point 10:59:10): 0.337 and 0.363 and 0.336 and 0.335
- OD600 growth curve (6 ug/mL Sisomicin, time point 11:19:10): 0.341 and 0.367 and 0.34 and 0.342
- OD600 growth curve (6 ug/mL Sisomicin, time point 11:39:10): 0.344 and 0.37 and 0.354
- OD600 growth curve (6 ug/mL Sisomicin, time point 11:59:10): 0.345 and 0.372 and 0.346 and 0.363
- OD600 growth curve (6 ug/mL Sisomicin, time point 12:19:10): 0.348 and 0.373 and 0.349 and 0.371
- OD600 growth curve (6 ug/mL Sisomicin, time point 12:39:10): 0.349 and 0.376 and 0.35 and 0.381
- OD600 growth curve (6 ug/mL Sisomicin, time point 12:59:10): 0.351 and 0.378 and 0.352 and 0.389
- OD600 growth curve (6 ug/mL Sisomicin, time point 13:19:10): 0.351 and 0.377 and 0.354 and 0.399
- OD600 growth curve (6 ug/mL Sisomicin, time point 13:39:10): 0.352 and 0.376 and 0.356 and 0.407
- OD600 growth curve (6 ug/mL Sisomicin, time point 13:59:10): 0.353 and 0.38 and 0.358 and 0.42
- OD600 growth curve (6 ug/mL Sisomicin, time point 14:19:10): 0.353 and 0.378 and 0.358 and 0.426
- OD600 growth curve (6 ug/mL Sisomicin, time point 14:39:10): 0.354 and 0.379 and 0.358 and 0.437
- OD600 growth curve (6 ug/mL Sisomicin, time point 14:59:10): 0.354 and 0.379 and 0.363 and 0.451
- OD600 growth curve (6 ug/mL Sisomicin, time point 15:19:10): 0.355 and 0.381 and 0.363 and 0.463
- OD600 growth curve (6 ug/mL Sisomicin, time point 15:39:10): 0.356 and 0.381 and 0.365 and 0.473
- OD600 growth curve (6 ug/mL Sisomicin, time point 15:59:10): 0.356 and 0.381 and 0.367 and 0.486
- OD600 growth curve (6 ug/mL Sisomicin, time point 16:19:10): 0.357 and 0.379 and 0.368 and 0.495
- OD600 growth curve (6 ug/mL Sisomicin, time point 16:39:10): 0.358 and 0.379 and 0.37 and 0.506
- OD600 growth curve (6 ug/mL Sisomicin, time point 16:59:10): 0.358 and 0.378 and 0.371 and 0.514
- OD600 growth curve (6 ug/mL Sisomicin, time point 17:19:10): 0.36 and 0.377 and 0.373 and 0.522
- OD600 growth curve (12 ug/mL Sisomicin, time point 00:19:10): 0.103 and 0.098 and 0.099
- OD600 growth curve (12 ug/mL Sisomicin, time point 00:39:10): 0.103 and 0.098 and 0.1
- OD600 growth curve (12 ug/mL Sisomicin, time point 00:59:10): 0.106 and 0.099 and 0.101
- OD600 growth curve (12 ug/mL Sisomicin, time point 01:19:10): 0.105 and 0.099 and 0.102
- OD600 growth curve (12 ug/mL Sisomicin, time point 01:39:10): 0.106 and 0.099 and 0.103
- OD600 growth curve (12 ug/mL Sisomicin, time point 01:59:10): 0.106 and 0.099 and 0.103
- OD600 growth curve (12 ug/mL Sisomicin, time point 02:19:10): 0.106 and 0.1 and 0.099 and 0.104
- OD600 growth curve (12 ug/mL Sisomicin, time point 02:39:10): 0.105 and 0.1 and 0.099 and 0.104
- OD600 growth curve (12 ug/mL Sisomicin, time point 02:59:10): 0.105 and 0.1 and 0.099
- OD600 growth curve (12 ug/mL Sisomicin, time point 03:19:10): 0.105 and 0.1 and 0.099
- OD600 growth curve (12 ug/mL Sisomicin, time point 03:39:10): 0.106 and 0.1 and 0.099
- OD600 growth curve (12 ug/mL Sisomicin, time point 03:59:10): 0.106 and 0.1 and 0.099
- OD600 growth curve (12 ug/mL Sisomicin, time point 04:19:10): 0.106 and 0.101 and 0.099 and 0.107
- OD600 growth curve (12 ug/mL Sisomicin, time point 04:39:10): 0.106 and 0.101 and 0.099 and 0.108
- OD600 growth curve (12 ug/mL Sisomicin, time point 04:59:10): 0.107 and 0.102 and 0.1 and 0.109
- OD600 growth curve (12 ug/mL Sisomicin, time point 05:19:10): 0.107 and 0.102 and 0.1 and 0.111
- OD600 growth curve (12 ug/mL Sisomicin, time point 05:39:10): 0.108 and 0.103 and 0.1 and 0.111
- OD600 growth curve (12 ug/mL Sisomicin, time point 05:59:10): 0.108 and 0.104 and 0.1 and 0.112
- OD600 growth curve (12 ug/mL Sisomicin, time point 06:19:10): 0.109 and 0.104 and 0.101 and 0.114
- OD600 growth curve (12 ug/mL Sisomicin, time point 06:39:10): 0.11 and 0.106 and 0.101 and 0.114
- OD600 growth curve (12 ug/mL Sisomicin, time point 06:59:10): 0.11 and 0.106 and 0.101 and 0.114
- OD600 growth curve (12 ug/mL Sisomicin, time point 07:19:10): 0.111 and 0.107 and 0.101 and 0.114
- OD600 growth curve (12 ug/mL Sisomicin, time point 07:39:10): 0.111 and 0.108 and 0.101 and 0.114
- OD600 growth curve (12 ug/mL Sisomicin, time point 07:59:10): 0.111 and 0.108 and 0.101 and 0.113
- OD600 growth curve (12 ug/mL Sisomicin, time point 08:19:10): 0.11 and 0.109 and 0.101 and 0.111
- OD600 growth curve (12 ug/mL Sisomicin, time point 08:39:10): 0.111 and 0.109 and 0.101
- OD600 growth curve (12 ug/mL Sisomicin, time point 08:59:10): 0.11 and 0.109 and 0.101 and 0.108
- OD600 growth curve (12 ug/mL Sisomicin, time point 09:19:10): 0.11 and 0.101 and 0.106
- OD600 growth curve (12 ug/mL Sisomicin, time point 09:39:10): 0.11 and 0.109 and 0.101 and 0.105
- OD600 growth curve (12 ug/mL Sisomicin, time point 09:59:10): 0.109 and 0.11 and 0.1 and 0.104
- OD600 growth curve (12 ug/mL Sisomicin, time point 10:19:10): 0.109 and 0.11 and 0.1 and 0.103
- OD600 growth curve (12 ug/mL Sisomicin, time point 10:39:10): 0.108 and 0.11 and 0.1 and 0.103
- OD600 growth curve (12 ug/mL Sisomicin, time point 10:59:10): 0.107 and 0.109 and 0.1 and 0.102
- OD600 growth curve (12 ug/mL Sisomicin, time point 11:19:10): 0.107 and 0.108 and 0.099 and 0.102
- OD600 growth curve (12 ug/mL Sisomicin, time point 11:39:10): 0.106 and 0.108 and 0.099 and 0.102
- OD600 growth curve (12 ug/mL Sisomicin, time point 11:59:10): 0.105 and 0.107 and 0.099 and 0.101
- OD600 growth curve (12 ug/mL Sisomicin, time point 12:19:10): 0.105 and 0.107 and 0.098 and 0.101
- OD600 growth curve (12 ug/mL Sisomicin, time point 12:39:10): 0.105 and 0.106 and 0.098 and 0.101
- OD600 growth curve (12 ug/mL Sisomicin, time point 12:59:10): 0.104 and 0.105 and 0.098 and 0.101
- OD600 growth curve (12 ug/mL Sisomicin, time point 13:19:10): 0.104 and 0.098 and 0.101
- OD600 growth curve (12 ug/mL Sisomicin, time point 13:39:10): 0.103 and 0.098 and 0.101
- OD600 growth curve (12 ug/mL Sisomicin, time point 13:59:10): 0.103 and 0.098 and 0.101
- OD600 growth curve (12 ug/mL Sisomicin, time point 14:19:10): 0.103 and 0.102 and 0.097 and 0.1
- OD600 growth curve (12 ug/mL Sisomicin, time point 14:39:10): 0.102 and 0.097 and 0.1
- OD600 growth curve (12 ug/mL Sisomicin, time point 14:59:10): 0.102 and 0.101 and 0.097 and 0.1
- OD600 growth curve (12 ug/mL Sisomicin, time point 15:19:10): 0.102 and 0.1 and 0.097
- OD600 growth curve (12 ug/mL Sisomicin, time point 15:39:10): 0.102 and 0.1 and 0.097
- OD600 growth curve (12 ug/mL Sisomicin, time point 15:59:10): 0.102 and 0.1 and 0.097
- OD600 growth curve (12 ug/mL Sisomicin, time point 16:19:10): 0.101 and 0.099 and 0.097
- OD600 growth curve (12 ug/mL Sisomicin, time point 16:39:10): 0.101 and 0.099 and 0.097
- OD600 growth curve (12 ug/mL Sisomicin, time point 16:59:10): 0.101 and 0.099 and 0.097
- OD600 growth curve (12 ug/mL Sisomicin, time point 17:19:10): 0.101 and 0.099 and 0.097
